These are yes or no findings as the source states them, for the method shown. Binding seen in cells or lysates may run through a third protein. Some results given as binding are weak or reduced against the parent protein; the word gives no strength. Sequences can lack the tags named with a protein.
Molecular target: T1, GST-RP2 (retinitis pigmentosa 2) (UniProt O75695)
T1 sequence: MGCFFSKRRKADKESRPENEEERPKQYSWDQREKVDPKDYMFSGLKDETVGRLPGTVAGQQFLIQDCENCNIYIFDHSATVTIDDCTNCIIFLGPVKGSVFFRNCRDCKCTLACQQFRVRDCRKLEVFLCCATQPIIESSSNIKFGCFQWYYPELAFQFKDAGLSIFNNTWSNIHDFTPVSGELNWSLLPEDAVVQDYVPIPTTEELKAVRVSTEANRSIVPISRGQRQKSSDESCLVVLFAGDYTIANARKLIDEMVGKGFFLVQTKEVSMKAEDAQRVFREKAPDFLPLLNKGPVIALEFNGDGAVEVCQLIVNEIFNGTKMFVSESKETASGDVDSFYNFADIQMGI
Test: pull-down

By UniProt entry, the sequences of proteins in these tests, tags left out. Where a name states a change or a piece, a line headed by the entry shows the natural chain unless it says otherwise.
UniProt P61006: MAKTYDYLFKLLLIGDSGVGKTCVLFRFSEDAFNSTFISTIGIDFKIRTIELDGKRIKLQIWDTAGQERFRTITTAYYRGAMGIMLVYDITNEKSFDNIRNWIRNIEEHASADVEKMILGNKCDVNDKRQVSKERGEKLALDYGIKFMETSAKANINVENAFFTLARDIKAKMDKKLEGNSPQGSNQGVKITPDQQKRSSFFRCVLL

- binding: binds
Substance: Myc-Rab8-T22N (from UniProt P61006 1-207) (enzyme)
